The values below come from patent publication US20060084798.

Chains of the proteins cited; added tags and fusions are not shown. Lines headed by an entry give the natural chain unless they say otherwise; changes in a name come on top. A line that says so, or that is headed by a name, gives the form on record, which may keep a tag or linker.
UniProt Q99814, other isoform, or with tags, fused parts or gaps: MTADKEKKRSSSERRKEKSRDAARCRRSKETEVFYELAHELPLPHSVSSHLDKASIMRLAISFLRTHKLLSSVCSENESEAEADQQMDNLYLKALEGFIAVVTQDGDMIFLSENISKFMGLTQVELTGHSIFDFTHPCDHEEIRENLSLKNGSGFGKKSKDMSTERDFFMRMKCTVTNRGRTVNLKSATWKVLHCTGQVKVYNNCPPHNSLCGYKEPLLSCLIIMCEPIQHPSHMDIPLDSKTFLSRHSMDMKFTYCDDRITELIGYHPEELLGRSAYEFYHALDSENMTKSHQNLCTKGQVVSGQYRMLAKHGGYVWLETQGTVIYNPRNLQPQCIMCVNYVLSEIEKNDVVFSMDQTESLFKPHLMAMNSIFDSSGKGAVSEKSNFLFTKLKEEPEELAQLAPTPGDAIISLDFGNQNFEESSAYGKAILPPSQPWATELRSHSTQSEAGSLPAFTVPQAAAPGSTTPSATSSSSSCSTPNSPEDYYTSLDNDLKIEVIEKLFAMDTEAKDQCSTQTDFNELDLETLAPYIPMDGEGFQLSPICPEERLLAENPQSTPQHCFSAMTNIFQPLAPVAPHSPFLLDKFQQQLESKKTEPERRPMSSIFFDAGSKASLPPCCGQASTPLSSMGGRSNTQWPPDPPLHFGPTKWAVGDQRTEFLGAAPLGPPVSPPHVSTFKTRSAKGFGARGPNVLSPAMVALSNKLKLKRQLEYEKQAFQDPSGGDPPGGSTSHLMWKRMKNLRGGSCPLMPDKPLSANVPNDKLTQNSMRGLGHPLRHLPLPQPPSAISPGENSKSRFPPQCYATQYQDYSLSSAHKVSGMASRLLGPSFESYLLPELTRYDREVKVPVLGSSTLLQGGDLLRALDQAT
UniProt Q0VBL6, other isoform, or with tags, fused parts or gaps: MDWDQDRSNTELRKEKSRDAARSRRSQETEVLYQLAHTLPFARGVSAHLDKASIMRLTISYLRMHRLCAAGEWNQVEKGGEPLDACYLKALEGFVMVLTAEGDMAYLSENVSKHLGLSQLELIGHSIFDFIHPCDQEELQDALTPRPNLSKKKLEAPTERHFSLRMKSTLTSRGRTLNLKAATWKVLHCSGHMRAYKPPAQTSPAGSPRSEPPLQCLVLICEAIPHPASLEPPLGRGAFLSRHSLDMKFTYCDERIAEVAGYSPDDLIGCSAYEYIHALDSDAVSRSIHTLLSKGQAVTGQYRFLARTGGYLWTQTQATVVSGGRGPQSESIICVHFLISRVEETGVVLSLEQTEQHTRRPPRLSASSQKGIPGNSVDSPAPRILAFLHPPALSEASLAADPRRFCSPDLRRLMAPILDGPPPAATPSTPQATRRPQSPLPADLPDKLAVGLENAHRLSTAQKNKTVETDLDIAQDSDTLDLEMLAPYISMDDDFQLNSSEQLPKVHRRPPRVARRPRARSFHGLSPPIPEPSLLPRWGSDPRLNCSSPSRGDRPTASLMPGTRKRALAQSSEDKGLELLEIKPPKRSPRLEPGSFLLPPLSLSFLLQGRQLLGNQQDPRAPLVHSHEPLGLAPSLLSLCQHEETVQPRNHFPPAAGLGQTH
UniProt Q16665: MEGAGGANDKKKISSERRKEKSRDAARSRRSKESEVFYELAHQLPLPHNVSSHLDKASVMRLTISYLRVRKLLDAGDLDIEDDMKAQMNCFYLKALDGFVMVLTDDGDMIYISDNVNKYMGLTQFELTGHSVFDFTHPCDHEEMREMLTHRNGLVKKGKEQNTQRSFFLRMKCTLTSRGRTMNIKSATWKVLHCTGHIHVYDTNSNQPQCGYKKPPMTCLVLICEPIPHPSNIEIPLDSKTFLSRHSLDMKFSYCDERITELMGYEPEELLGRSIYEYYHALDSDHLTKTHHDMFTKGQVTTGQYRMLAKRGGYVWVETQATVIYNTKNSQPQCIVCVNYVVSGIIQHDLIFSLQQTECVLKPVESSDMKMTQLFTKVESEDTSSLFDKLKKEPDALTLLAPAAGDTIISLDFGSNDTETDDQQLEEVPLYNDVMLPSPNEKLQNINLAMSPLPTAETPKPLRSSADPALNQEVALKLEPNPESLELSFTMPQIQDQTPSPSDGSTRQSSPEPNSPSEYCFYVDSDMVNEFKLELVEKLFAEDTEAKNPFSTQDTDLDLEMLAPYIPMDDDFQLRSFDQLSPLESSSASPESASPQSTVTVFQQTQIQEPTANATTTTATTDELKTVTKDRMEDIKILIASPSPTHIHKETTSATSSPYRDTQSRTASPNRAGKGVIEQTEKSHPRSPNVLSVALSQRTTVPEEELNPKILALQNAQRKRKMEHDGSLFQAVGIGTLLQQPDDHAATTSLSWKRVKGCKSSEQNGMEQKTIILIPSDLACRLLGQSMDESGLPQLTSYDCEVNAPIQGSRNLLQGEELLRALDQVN
UniProt O00327, other isoform, or with tags, fused parts or gaps: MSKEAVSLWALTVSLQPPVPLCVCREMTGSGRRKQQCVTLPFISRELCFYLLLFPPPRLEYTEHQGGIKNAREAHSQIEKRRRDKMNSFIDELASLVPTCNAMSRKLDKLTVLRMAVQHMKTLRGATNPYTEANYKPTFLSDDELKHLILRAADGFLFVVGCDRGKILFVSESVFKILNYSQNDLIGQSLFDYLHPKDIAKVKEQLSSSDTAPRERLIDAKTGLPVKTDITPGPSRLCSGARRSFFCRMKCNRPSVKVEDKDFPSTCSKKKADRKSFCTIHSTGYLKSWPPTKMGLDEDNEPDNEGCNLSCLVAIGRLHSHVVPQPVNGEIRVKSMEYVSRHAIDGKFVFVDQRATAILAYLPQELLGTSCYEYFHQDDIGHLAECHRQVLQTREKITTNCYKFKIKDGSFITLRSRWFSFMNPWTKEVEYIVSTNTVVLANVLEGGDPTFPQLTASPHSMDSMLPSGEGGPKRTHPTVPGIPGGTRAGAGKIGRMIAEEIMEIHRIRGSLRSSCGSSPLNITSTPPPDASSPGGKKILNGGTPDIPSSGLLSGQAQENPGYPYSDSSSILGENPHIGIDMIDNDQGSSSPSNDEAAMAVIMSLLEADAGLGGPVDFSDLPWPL
MOP3/MOP4 (transfected) (Homo sapiens), one chain, as listed by the source, chain 2 of 2: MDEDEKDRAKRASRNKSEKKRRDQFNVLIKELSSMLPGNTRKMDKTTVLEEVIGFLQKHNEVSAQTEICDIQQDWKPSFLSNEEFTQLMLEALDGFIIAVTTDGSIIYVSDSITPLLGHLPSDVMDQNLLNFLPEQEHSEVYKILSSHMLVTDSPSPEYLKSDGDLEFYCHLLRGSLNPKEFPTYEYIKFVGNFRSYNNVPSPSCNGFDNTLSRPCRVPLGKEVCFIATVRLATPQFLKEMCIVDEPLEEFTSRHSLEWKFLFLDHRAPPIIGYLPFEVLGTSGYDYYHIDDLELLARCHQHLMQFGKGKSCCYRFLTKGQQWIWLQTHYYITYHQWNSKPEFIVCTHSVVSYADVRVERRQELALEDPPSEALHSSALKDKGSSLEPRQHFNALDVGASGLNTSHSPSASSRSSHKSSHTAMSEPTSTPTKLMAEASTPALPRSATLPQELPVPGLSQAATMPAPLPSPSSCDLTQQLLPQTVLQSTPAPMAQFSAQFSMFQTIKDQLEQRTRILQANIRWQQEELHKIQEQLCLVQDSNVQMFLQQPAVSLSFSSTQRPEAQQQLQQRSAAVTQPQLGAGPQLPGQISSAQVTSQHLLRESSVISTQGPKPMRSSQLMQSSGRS
MOP4/ARNT (transfected) (Homo sapiens), one chain, as listed by the source, chain 2 of 2: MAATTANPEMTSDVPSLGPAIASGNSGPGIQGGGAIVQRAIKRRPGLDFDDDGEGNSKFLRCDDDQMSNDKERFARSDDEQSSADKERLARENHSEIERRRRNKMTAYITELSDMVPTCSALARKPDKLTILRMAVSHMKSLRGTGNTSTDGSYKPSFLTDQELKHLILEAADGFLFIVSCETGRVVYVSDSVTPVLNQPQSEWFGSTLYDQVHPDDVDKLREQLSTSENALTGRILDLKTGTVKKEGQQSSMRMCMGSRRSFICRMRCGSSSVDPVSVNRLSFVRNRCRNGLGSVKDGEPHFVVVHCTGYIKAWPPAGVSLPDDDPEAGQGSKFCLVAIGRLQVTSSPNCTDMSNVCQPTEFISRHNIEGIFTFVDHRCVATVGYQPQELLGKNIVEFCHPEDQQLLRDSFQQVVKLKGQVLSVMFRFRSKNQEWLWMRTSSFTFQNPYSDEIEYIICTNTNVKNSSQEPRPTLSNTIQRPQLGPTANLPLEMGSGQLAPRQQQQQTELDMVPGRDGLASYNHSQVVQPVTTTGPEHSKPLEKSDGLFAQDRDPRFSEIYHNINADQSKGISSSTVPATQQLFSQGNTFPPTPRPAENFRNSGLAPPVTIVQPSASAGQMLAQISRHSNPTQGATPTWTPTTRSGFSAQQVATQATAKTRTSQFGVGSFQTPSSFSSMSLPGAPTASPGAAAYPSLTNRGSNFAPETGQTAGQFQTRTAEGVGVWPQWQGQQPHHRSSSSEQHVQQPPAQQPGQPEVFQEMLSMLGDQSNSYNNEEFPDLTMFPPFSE
MOP4/ARNT (transfected) (Homo sapiens), one chain, as listed by the source, chain 1 of 2: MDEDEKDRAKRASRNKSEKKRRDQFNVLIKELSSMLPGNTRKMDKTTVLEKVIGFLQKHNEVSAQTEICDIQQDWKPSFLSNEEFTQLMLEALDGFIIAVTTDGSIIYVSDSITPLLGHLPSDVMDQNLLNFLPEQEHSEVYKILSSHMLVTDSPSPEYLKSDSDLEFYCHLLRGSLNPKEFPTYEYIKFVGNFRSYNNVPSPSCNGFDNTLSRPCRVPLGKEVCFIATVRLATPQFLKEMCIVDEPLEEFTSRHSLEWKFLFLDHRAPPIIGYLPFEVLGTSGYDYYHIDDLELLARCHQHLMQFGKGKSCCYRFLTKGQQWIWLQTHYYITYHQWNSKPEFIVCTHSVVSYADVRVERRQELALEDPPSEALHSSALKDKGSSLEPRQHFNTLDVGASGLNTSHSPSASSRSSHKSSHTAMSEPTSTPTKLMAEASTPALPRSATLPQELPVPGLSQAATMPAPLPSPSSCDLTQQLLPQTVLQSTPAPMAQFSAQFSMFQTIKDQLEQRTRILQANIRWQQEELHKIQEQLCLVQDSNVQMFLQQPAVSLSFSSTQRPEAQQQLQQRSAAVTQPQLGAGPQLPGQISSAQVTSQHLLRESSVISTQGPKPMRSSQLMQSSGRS
MOP3/HIF2alpha (transfected) (Homo sapiens), one chain, as listed by the source, chain 2 of 2: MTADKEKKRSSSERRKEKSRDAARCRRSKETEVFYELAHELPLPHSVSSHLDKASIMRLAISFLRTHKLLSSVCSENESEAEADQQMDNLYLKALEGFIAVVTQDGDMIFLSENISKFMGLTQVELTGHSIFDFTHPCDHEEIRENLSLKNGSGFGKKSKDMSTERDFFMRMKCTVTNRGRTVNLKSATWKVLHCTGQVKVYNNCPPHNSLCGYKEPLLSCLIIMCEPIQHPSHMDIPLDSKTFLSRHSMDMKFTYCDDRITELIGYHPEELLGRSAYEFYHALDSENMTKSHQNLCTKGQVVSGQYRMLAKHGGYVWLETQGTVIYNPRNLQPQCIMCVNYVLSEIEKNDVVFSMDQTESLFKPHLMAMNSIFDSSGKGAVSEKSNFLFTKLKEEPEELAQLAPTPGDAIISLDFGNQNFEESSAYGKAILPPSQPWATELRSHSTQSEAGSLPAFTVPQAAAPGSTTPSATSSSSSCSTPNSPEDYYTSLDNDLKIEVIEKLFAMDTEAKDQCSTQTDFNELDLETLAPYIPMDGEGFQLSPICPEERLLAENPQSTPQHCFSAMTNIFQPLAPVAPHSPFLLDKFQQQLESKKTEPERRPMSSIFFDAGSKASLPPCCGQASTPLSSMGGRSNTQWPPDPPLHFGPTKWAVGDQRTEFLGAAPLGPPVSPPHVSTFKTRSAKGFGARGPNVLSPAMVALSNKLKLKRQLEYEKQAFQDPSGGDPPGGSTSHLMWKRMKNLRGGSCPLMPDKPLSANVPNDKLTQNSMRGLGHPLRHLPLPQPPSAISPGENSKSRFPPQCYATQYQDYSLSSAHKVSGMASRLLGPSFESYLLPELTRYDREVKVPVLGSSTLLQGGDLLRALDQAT
MOP3/MOP4 (transfected) (Homo sapiens), one chain, as listed by the source, chain 1 of 2: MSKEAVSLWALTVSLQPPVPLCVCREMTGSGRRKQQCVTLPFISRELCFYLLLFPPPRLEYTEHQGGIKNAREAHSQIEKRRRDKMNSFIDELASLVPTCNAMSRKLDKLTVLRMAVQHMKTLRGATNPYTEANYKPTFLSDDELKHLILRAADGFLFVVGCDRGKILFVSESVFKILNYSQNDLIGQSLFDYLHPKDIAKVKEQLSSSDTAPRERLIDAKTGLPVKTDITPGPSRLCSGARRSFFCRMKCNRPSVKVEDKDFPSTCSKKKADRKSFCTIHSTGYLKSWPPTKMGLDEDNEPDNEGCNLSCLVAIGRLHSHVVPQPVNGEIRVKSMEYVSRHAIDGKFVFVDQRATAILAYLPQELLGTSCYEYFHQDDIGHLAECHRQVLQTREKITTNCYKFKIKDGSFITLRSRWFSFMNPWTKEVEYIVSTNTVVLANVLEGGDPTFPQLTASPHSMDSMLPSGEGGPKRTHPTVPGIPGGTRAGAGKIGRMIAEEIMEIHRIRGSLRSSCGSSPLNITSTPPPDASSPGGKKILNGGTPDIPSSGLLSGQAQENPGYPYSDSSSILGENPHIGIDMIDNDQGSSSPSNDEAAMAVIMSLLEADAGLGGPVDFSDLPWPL

For part of these data: Negatives hold for the conditions tested. For part of these data: The comparison behind a weaker result is the experiment's own reference, which may not be listed here. For part of these data: For at least one entry, the source does not settle the construct or the ends of the probe.

Data set [1] deals with MOP1 (HIF1alpha)/ARNT heterodimer (Homo sapiens). Briefly: EMSA. The note with it: protein translated in vitro. (In general: Mobility shift assays separate free from complexed probe on a gel.)
For data set [2], the target named is MOP2 (HIF2alpha) (Homo sapiens) (UniProt Q99814). The experiment in a line: EMSA. The note with it: MOP2 alone; protein translated in vitro; label: 32P.
Data set [3] concerns the target MOP7 (HIF3alpha) (Mus musculus) (UniProt Q0VBL6). The experiment in a line: EMSA. To be noted: MOP7 alone; protein translated in vitro; label: 32P.
Data set [4] relates to MOP3/MOP4 (transfected) (Homo sapiens). The experiment in a line: activity in cells. To be noted: COS-1 luciferase; protein in cells; only the site is given.
Data set [5] has as its system MOP4/ARNT (transfected) (Homo sapiens). Briefly: activity in cells. The note with it: no activation over control; protein in cells; only the site is given.
The target in a further data set is ARNT (Homo sapiens) (UniProt P27540). The experiment in a line: EMSA. The note with it: lower than MOP1-ARNT; protein translated in vitro.
Data set [6] has as its target MOP1 (HIF1alpha) (Homo sapiens) (UniProt Q16665). The experiment in a line: EMSA. The note with it: lower than MOP1-ARNT; protein translated in vitro.
Data set [7] deals with MOP3/HIF1alpha heterodimer (MOP3 isoform with alternative first 57 codons) (Homo sapiens). Briefly: EMSA. The note with it: protein translated in vitro.
In data set [8] the target is MOP3 (isoform with alternative first 57 codons) (Homo sapiens) (UniProt O00327). Briefly: EMSA. To be noted: MOP3 alone; protein translated in vitro.
Data set [9] deals with MOP3/HIF1alpha (transfected) (Homo sapiens). Briefly: activity in cells. The note with it: COS-1 luciferase; protein in cells; only the site is given.
The test system of data set [10] is MOP3/HIF2alpha (transfected) (Homo sapiens). Briefly: activity in cells. To be noted: COS-1 luciferase; protein in cells; only the site is given.

Take “CATGTG (double strand) [CATGTG non-palindromic E-box (full oligo not printed)]”: in [1], the binding result is recorded as “no binding”. With “TCGAGCTGGGCAGGGTACGTGGCAAGGC / TCGAGCCTTGCCACGTACCCTGCCCAGC [OL414/OL415 TACGTG (HRE)]”, the binding result in data set [2] and in data set [3] was “no binding” in each case. As for “GATCGGACACGTGACCATTGGTCACGTGTCCATTGGACACGTGACC / GATCGGTCACGTGTCCAATGGACACGTGACCAATGGTCACGTGTCC [3x M34 reporter insert OL1116/OL1117]”, the values for the activity on this sequence in data set [4] and in data set [5] were 3.3 fold and “not active”, respectively. On to “TCGAGCTGGGCAGGTCACGTGGCAAGGC / TCGAGCCTTGCCACGTGACCTGCCCAGC [OL445/OL446 CACGTG E-box]”, for which the binding result (with ARNT (Homo sapiens); in data set [6]) was “binds more weakly” each time. For the sequence “GCCCTACGTGTTCC (double strand) [HIF1alpha half site fused to alternative MOP3 half site]”, the binding result in data set [7] (complex preferred GCCCTACGTGACCC, variant of M13 element) is “binds more weakly”.

For the sequence “GCCCTACGTGACCC (double strand) [M13 element]”, the binding result is “no binding” in [8]; “binds” in [7] (abolished by MOP3 and HIF1alpha antisera). Consider “GATCGGATACGTGACCATTGGTTACGTGTCCATTGGATACGTGACC (double strand) [M13 reporter insert OL1155 (reporter carries six M13 copies)]”, for which the activity on this sequence came to 3.3 fold in data set [9] and 3.6 fold in data set [10].
